# PubChem BioAssay (NCATS)
# Several values for one entry are separate records, joined by “and”; a condition that tells them apart may be missing. Identical values can stand only once. Inconclusive means that the source gave no clear call. Such entries were picked first, then a sample of the others. Potencies beside an inconclusive call are fits to weak or partial responses and may not hold up. Activity calls are given as the source filed them. Calls come from the whole dose curve; as a rule, active = well fitted cell-killing curve with a large enough effect; inconclusive = small, poorly fitted or top-dose-only effect; inactive = no such curve, though single readings can be large or run the other way.
# Experiment: qHTS of pediatric cancer cell lines to identify multiple opportunities for drug repurposing: Primary screen for Rh41 cells (AID 1347108); note: nearly all actives have a fitted effect of over 70% in size;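 for activity change, negative = cytotoxic: luminescence drop marks cytotoxic hits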
# Settings: Rh41 rhabdomyosarcoma viability, CellTiter-Glo luminescence, 48 h; series mostly up to 46 µM; activity change, negative = cytotoxic: at the top concentration
# Summary of the method: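 Plated cells (500-1,000 per well, growth media) were allowed to settle for 5 hours, treated with compound dilutions for 48 hours, then lysed with CellTiter-Glo for 15 min at room temperature before luminescence reading.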
# Potency is the fitted concentration of half-maximal effect.
SMILES,"activity change, negative = cytotoxic",Potency
OCCN1C[C@H](O)[C@@H](O)[C@H](O)[C@@H]1CO,inactive: 32.6%,
CN(C)CC/C=C1\c2ccccc2Sc2ccc(Cl)cc21,,"inconclusive: 29.9 µM [cytotoxic, partial curve, poor fit]"
Clc1ccc2c(c1)C(N1CCNCC1)=Nc1ccccc1O2,,inactive
NC(=NCCCCCCN=C(N)/N=C(\N)Nc1ccc(Cl)cc1)/N=C(\N)Nc1ccc(Cl)cc1,,"inconclusive: 18.8 µM [cytotoxic, partial curve]"
CC(=O)Oc1cc(C(C)C)c(OCCN(C)C)cc1C,inactive: 31.4%,
c1cc(CN2CCCNCCNCCCNCC2)ccc1CN1CCCNCCNCCCNCC1,inactive: 29.8%,
Cc1ccc(S(=O)(=O)Nc2cc(Cl)ccc2C(=O)Nc2nc(-c3ccccc3)cs2)cc1,,active: 18.7 µM
C#C[C@]1(O)CC[C@H]2[C@@H]3[C@H](C)CC4=C(CCC(=O)C4)[C@H]3CC[C@@]21C,inactive: 9.25%,
O[C@@H](c1cc(C(F)(F)F)nc2c(C(F)(F)F)cccc12)[C@H]1CCCCN1,,"inconclusive: 33.5 µM [cytotoxic, single point]"
Cc1cc(SCc2sc(-c3ccc(C(F)(F)F)cc3)nc2C)ccc1OCC(=O)O,,"inconclusive: 26.4 µM [cytotoxic, partial curve, poor fit]"
C[C@@H](N)C1CCC(C(=O)Nc2ccncc2)CC1 (stereo partly drawn),inactive: 21.2%,
COc1ccc2c3n(c(=NC(=O)c4cccnc4)nc2c1OC)CCN3,,active: 0.935 µM
CCN1CCc2nc(N)oc2CC1,inactive: 22.8%,
CC1(CN2CCC(n3c(=O)[nH]c4ccccc43)CC2)OCc2ccccc2-n2cccc21 (stereo not drawn),,"inconclusive: 8.33 µM [cytotoxic, partial curve] and inconclusive: 13.3 µM [cytotoxic, partial curve, poor fit]"
O=C(CCCN1CCN(c2ccc(F)cc2)CC1)NC1c2ccccc2CSc2ccccc21 (stereo not drawn),,"inconclusive: 6.62 µM [cytotoxic, partial curve]"
COc1ccc(CCC(=O)Nc2nc3ccc(Cl)cc3s2)cc1OC,,"inconclusive: 18.7 µM [cytotoxic, partial curve]"
Cc1cc(-c2ccccc2)nnc1NCCN1CCOCC1,,"inconclusive: 23.7 µM [cytotoxic, partial curve, poor fit]"
OCCN1CCN(CCCN2c3ccccc3Sc3ccc(Cl)cc32)CC1,,"inconclusive: 23.7 µM [cytotoxic, single point]"
COc1ccc(-c2oc3c(CC=C(C)C)c(O)cc(O)c3c(=O)c2O)cc1,,active: 18.7 µM
COc1cc2ncnc(Nc3cccc(Cl)c3)c2cc1OC,,"inconclusive: 1.18 µM [cytotoxic, full curve]"
CC(C)(C)NC(=O)[C@H]1CC[C@H]2[C@@H]3CC[C@H]4NC(=O)C=C[C@]4(C)[C@H]3CC[C@]12C,,"inconclusive: 23.5 µM [cytotoxic, single point]"
C[C@@H](c1ncncc1F)[C@](O)(Cn1cncn1)c1ccc(F)cc1F,,"inconclusive: 11.8 µM [cytotoxic, partial curve, poor fit]"
C=CCc1ccc(O)c(OC)c1,inactive: 19.3%,
CCC(=O)c1ccc2c(c1)N(CCCN(C)C)c1ccccc1S2,inactive: 2.02%,
COc1cccc(OC)c1-c1cc(C(=O)NC2(C(=O)O)C3CC4CC(C3)CC2C4)nn1-c1ccnc2cc(Cl)ccc12 (stereo not drawn),inactive: 21.6%,
Cc1cc(NC(=O)Nc2ccc(N(C)C)cc2)c2cc(F)cc(F)c2n1,inactive: 11.4%,
O=C1c2ccccc2C(=O)C1c1ccccc1,inactive: 38.5%,
CCn1c(-c2nonc2N)nc2cncc(CNC3CCNCC3)c21,,"inconclusive: 6.62 µM [cytotoxic, partial curve]"
